Laboratory results reported in PubChem BioAssay AID248 (DTP/NCI, 2004).
The list is a part of this screen's results and no random one: it is rich in T/C values a quarter to a half above the control, in often repeated tests (any T/C) and in doses without a T/C. Other doses and runs of a compound stand elsewhere. T/C gives the treated animals as a percentage of the vehicle group. Some entries give survivors of the animals treated and no T/C: the source files T/C as zero there, which appears to mark a toxic dose or a test without result, not a measured value. Some survivor counts are full or nearly so, which does not show that the dose was tolerated: survival well below the control is almost never listed, so the zero probably covers shortened survival too. Survivors were counted at the toxicity check, usually on the fifth day, unless a day is given; later deaths do not show. Schedule codes are those of the source, read here as Q, the interval in days (D) or hours (H), X, the number of doses. Some doses were run more than once; the values are given in rising order. Some schedules carry Z or #; the key to these is not given. For survival time, the PubChem record calls one and a half times the control and up active, and a quarter to a half above the control has no call in these data; cut-offs in other NCI protocols can differ. Some T/C values carry the count of animals alive at the toxicity check (mostly the fifth day); without a count, all were alive then.

Tested on: L1210 leukemia ip in BDF1 mice, survival T/C
Assay: NCI In Vivo Anticancer Drug Screen. Data for tumor model L1210 Leukemia (intraperitoneal) in B6D2F1 (BDF1) mice
Conditions: T/C endpoint: mean survival time, higher T/C = longer survival
[1] = dose: 200.0 mg/kg/injection, schedule: Q01DX009 (ip), vehicle: Klucel (hydroxypropylcellulose) (HPC)
[2] = dose: 400.0 mg/kg/injection, schedule: Q01DX009 (ip), vehicle: Klucel (hydroxypropylcellulose) (HPC)
[3] = dose: 100.0 mg/kg/injection, schedule: Q01DX009 (ip), vehicle: Klucel (hydroxypropylcellulose) (HPC)
[4] = dose: 400.0 mg/kg/injection, schedule: Q04DX003 (ip), vehicle: saline
[5] = dose: 400.0 mg/kg/injection, schedule: Q01DX009 (ip), vehicle: saline with Tween-80

Structure (SMILES): CC(C)(C)NC1=NCCO1
- survivor count (dose: 200.0 mg/kg/injection, schedule: Q04DX003 (ip), vehicle: saline with Tween-80): 2 of 6
- survivor count (dose: 400.0 mg/kg/injection, schedule: Q04DX003 (ip), vehicle: saline with Tween-80): 0 of 6

Structure (SMILES): ClC1=C(Cl)C(Cl)(Cl)C(Cl)(Cl)C1(Cl)Cl
- survivor count [1]: 2 of 6
- survivor count [2]: 0 of 6

Structure (SMILES): COc1ccc(C(C#N)N2CCCCC2)cc1 (stereo not given)
- survivor count [3]: 6 of 6

Structure (SMILES): CN(C)N=C1CCCC1
- survivor count (dose: 200.0 mg/kg/injection, schedule: Q01DX009 (ip), vehicle: saline): 3 of 6

Structure (SMILES): COc1ccc2c3c(ccc2c1)C(=O)/C(=C\O)CC3
- survivor count [3]: 5 of 6
- survivor count [1]: 2 of 6
- survivor count [2]: 0 of 6
- survivor count (dose: 400.0 mg/kg/injection, schedule: Q04DX003 (ip), vehicle: Klucel (hydroxypropylcellulose) (HPC)): 1 of 6

Structure (SMILES): O=[N+]([O-])c1ccc(OCCC[P+](c2ccccc2)(c2ccccc2)c2ccccc2)c(Cl)c1
- survivor count (dose: 18.0 mg/kg/injection, schedule: Q01DX009 (ip), vehicle: saline): 5 of 6
- survivor count (dose: 25.0 mg/kg/injection, schedule: Q04DX003 (ip), vehicle: saline): 3 of 6
- survivor count (dose: 28.0 mg/kg/injection, schedule: Q01DX009 (ip), vehicle: saline): 3 of 6
- survivor count (dose: 40.0 mg/kg/injection, schedule: Q01DX009 (ip), vehicle: saline): 0 of 6
- survivor count (dose: 50.0 mg/kg/injection, schedule: Q04DX003 (ip), vehicle: saline): 0 of 6
- survivor count (dose: 100.0 mg/kg/injection, schedule: Q04DX003 (ip), vehicle: saline): 1 of 6 and 2 of 6
- survivor count (dose: 200.0 mg/kg/injection, schedule: Q04DX003 (ip), vehicle: saline): 4 of 6
- survivor count [4]: 0 of 6

Structure (SMILES): CCCCN(CCCC)C(=O)C1C=C2c3cccc4[nH]cc(c34)CC2N(C#N)C1 (stereo not given)
- survivor count [5]: 6 of 6

Structure (SMILES): N=C(N)/C=C\C(=O)O
- survivor count (dose: 40.0 mg/kg/injection, schedule: Q01DX Z (ip), vehicle: carboxymethylcellulose (CMC)): 0 of 6

Structure (SMILES): ClC1=C(Cl)C2(Cl)CC(Cl)C1C2(Cl)Cl (stereo not given)
- survivor count (dose: 40.0 mg/kg/injection, schedule: Q01DX001 (ip), vehicle: acetone): 5 of 6
- survivor count (dose: 75.0 mg/kg/injection, schedule: Q01DX001 (ip), vehicle: acetone): 2 of 6
- survivor count (dose: 150.0 mg/kg/injection, schedule: Q01DX001 (ip), vehicle: acetone): 2 of 6
- survivor count (dose: 300.0 mg/kg/injection, schedule: Q01DX001 (ip), vehicle: acetone): 1 of 6

Structure (SMILES): CNC(=N)c1ccc(NC(=N)c2ccc(NC(=N)c3ccc(NC(=O)c4ccc(C(=N)NC)cc4)cc3)cc2)cc1
- T/C (dose: 20.0 mg/kg/injection, schedule: Q01DX015 (ip), vehicle: water): 126 % of control [5 of 6 alive]
- T/C (dose: 40.0 mg/kg/injection, schedule: Q01DX Z (ip), vehicle: water): 127 % of control
- survivor count (dose: 75.0 mg/kg/injection, schedule: Q01DX015 (ip), vehicle: water): 0 of 6
- survivor count (dose: 80.0 mg/kg/injection, schedule: Q01DX Z (ip), vehicle: water): 0 of 6
- survivor count (dose: 160.0 mg/kg/injection, schedule: Q01DX Z (ip), vehicle: water): 0 of 6

Structure (SMILES): BrC#CC1CCCCC1
- survivor count [4]: 1 of 6

Structure (SMILES): CCCCCCCCNCCCCCCCC
- survivor count (dose: 37.0 mg/kg/injection, schedule: Q01DX009 (ip), vehicle: other): 3 of 6
- survivor count (dose: 75.0 mg/kg/injection, schedule: Q01DX009 (ip), vehicle: other): 0 of 6
- survivor count (dose: 150.0 mg/kg/injection, schedule: Q01DX009 (ip), vehicle: other): 0 of 6
- survivor count (dose: 200.0 mg/kg/injection, schedule: Q01DX001 (ip), vehicle: other): 1 of 4
- survivor count (dose: 300.0 mg/kg/injection, schedule: Q01DX009 (ip), vehicle: other): 0 of 6
- survivor count (dose: 400.0 mg/kg/injection, schedule: Q01DX001 (ip), vehicle: other): 0 of 4

Structure (SMILES): O=[N+]([O-])CC(OCCCO)C(Cl)(Cl)Cl (stereo not given)
- survivor count (dose: 25.0 mg/kg/injection, schedule: Q01DX009 (ip), vehicle: saline with Tween-80): 6 of 6
- survivor count (dose: 100.0 mg/kg/injection, schedule: Q01DX009 (ip), vehicle: saline with Tween-80): 0 of 6
- survivor count (dose: 200.0 mg/kg/injection, schedule: Q01DX009 (ip), vehicle: saline with Tween-80): 0 of 6
- survivor count [5]: 0 of 6
